Results of single-concentration screens

The chains behind the UniProt entries cited, without tags or fusion partners.
UniProt I6X8D2, whole entry: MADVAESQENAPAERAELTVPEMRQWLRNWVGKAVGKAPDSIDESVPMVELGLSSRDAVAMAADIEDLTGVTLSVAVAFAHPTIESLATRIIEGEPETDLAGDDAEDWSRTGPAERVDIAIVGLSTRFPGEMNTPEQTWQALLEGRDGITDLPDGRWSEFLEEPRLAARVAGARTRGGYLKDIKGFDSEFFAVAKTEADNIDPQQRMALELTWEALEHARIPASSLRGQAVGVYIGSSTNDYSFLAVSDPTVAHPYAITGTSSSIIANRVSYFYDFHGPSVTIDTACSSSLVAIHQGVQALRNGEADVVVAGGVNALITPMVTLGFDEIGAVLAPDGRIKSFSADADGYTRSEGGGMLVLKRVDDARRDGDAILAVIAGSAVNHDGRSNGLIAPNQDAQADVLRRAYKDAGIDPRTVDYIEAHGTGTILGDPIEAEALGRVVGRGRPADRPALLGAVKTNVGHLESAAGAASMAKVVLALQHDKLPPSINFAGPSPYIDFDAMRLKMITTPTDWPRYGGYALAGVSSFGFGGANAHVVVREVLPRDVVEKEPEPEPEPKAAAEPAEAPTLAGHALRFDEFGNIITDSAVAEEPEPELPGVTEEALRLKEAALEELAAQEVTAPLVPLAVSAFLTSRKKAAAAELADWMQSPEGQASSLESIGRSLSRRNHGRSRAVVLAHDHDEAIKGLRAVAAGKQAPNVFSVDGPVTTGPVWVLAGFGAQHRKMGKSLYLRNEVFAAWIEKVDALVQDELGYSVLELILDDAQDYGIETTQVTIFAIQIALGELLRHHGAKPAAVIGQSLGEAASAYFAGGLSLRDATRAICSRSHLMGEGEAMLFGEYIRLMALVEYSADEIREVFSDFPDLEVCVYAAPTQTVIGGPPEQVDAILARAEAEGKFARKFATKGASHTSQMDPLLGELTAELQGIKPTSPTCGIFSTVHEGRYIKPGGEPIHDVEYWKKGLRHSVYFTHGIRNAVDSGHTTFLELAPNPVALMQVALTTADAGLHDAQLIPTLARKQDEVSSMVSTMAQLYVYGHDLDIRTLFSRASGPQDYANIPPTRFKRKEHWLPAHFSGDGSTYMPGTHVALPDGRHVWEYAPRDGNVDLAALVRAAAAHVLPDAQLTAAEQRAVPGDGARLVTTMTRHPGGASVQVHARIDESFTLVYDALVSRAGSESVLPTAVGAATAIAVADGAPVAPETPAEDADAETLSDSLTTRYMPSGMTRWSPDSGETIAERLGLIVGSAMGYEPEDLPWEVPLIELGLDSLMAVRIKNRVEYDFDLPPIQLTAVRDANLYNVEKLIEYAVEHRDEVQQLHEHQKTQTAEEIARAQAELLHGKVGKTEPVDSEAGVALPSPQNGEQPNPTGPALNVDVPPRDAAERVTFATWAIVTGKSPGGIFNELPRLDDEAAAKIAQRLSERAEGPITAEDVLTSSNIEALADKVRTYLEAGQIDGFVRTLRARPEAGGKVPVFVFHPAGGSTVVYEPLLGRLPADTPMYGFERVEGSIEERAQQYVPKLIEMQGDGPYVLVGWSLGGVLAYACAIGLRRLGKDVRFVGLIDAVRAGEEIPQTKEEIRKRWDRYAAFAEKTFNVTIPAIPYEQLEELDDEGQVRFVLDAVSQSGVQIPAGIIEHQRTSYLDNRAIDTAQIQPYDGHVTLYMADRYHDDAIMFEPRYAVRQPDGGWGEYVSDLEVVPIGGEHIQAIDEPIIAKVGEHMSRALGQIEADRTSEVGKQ

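Enzyme assay of the thioesterase domain of polyketide synthase 13; the read-out is not stated. Target: Polyketide synthase Pks13, Mycobacterium tuberculosis (UniProt I6X8D2). Compounds at 30 µM. Higher reads as stronger inhibition (inferred from which compounds were picked for retests). About 67,000 compounds were tested under these conditions; 0.46% (about 300) showed 50% or more at least once.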

The filed quantity is “Percent Effect” (%).
The record does not define 0% and 100%; most values in the screen are far below 50% and negative numbers occur (in some assays of this library far below -100).
This is an unselected part of the compounds tested.

Compound,percent effect
Cc1noc(C(C)N2CCN(CCC(=O)N3CCOCC3)CC2)n1 (stereo unspecified),-2.099
CNC(=O)[C@@]12CCO[C@@H]1CCN(Cc1ccc3c(c1)OCO3)C2,10.58
Cc1cccc(C(C(=O)NCC2(O)CCCCC2)N(C)C)c1 (stereo unspecified),2.48
CN(C)c1ncccc1CNS(=O)(=O)c1ccccc1F,3.06
Cc1nnc(CN2CCC3(CCC(=O)N(C4CC4)C3)CC2)o1,-6.023
COc1ncccc1CNC(=O)c1cnccn1,-12.22
COc1ccc(CNC(=O)NC2CCN(CC3CCCC3)CC2)cn1,-14.27
CC(C)(C)OC(=O)N[C@@H]1C[C@@H](O)CN(C(=O)c2cccc(F)c2)C[C@H]1O,6.225
CC(=O)N(Cc1ncc(C)o1)C1CCN(Cc2csc(C)n2)C1 (stereo unspecified),-1.291
Cc1cc(N2CCN(C(=O)c3cc(Cl)c[nH]3)CC2)nc(N)n1,-28.8
O=C(c1cscn1)N1CCC2(CC1)CN(c1ccccn1)CCO2,-12.92
CC(=O)N1CCCCCC1C1CCN(c2ncccc2C#N)CC1 (stereo unspecified),11.76
CCc1n[nH]c(C2CN(C(=O)c3cc4c(s3)CCC4)CCO2)n1 (stereo unspecified),6.227
Cc1oncc1C(=O)N[C@@H]1CN(C2CCC2)C[C@@H]2CCCO[C@@H]21,-4.406
OCCC1CN(C2CCC2)CCN1C1CCCC1 (stereo unspecified),-16.92
COc1ccc(-n2nc(C(C)C)nc2COC(C)C)cc1,-8.15
CC(C)(N)CNS(=O)(=O)Cc1cccc2cccnc12,3.17
O=C(COCC1CC1)N1CCN(C(=O)Cc2ccccn2)CC1,-12.13
Cc1noc(C)c1CN1C[C@@H]2CC[C@H](C1)N(Cc1cc(F)cc(F)c1)C2,-20.77
Cc1cncc(C(=O)N2CCCC(O)(CO)C2)c1 (stereo unspecified),-35.82
Cc1nc(CN2CCO[C@H]3[C@@H](OCc4cccnc4)CC[C@@H]32)cs1,-4.534
CN(C)C(=O)c1ccc(CNc2c(Cl)cccc2C#N)cc1,-12.09
Cc1cccc(C)c1Nc1noc2c1CN(C(=O)c1cn(C)cn1)CC2,-19.66
CCCN1CCCn2c(nc(CNC(=O)c3ccsc3)cc2=O)C1,-14.87
Cc1ccc(CN2CC[C@@H](N3CCOCC3)[C@@H]2Cc2cccnc2)o1,4.207
O=C(O)CCCC(=O)N1CCC(c2noc3cc(F)ccc23)CC1,18.35
CC1c2ncc(Cn3cccn3)n2CCN1c1ncccn1 (stereo unspecified),4.169
COc1ccccc1CN(Cc1cccnc1)Cc1c[nH]c(C)n1,-37.93
Cc1n[nH]c(C)c1C1COCCN1C(=O)Cc1cccc(F)c1 (stereo unspecified),-8.708
O=C(NCC1CCCCC1)N1C[C@H]2C[C@H](C(=O)N3CCOCC3)[C@@H](C1)O2,-52.03
COC(=O)c1ccc(C(=O)N2CCc3c(ncn3C3CC3)C2)cc1,-13.47
OCCOCCNCC1(c2ccc(F)cc2)CCOC1 (stereo unspecified),-23.53
CCc1nnc2n1CCN(C(=O)c1ccc3c(c1)nnn3C)C2,-10.85
Cc1ccc(N2Cc3cnn(Cc4ccc(F)cc4)c3C2)nn1,-61
CC(C)(C)CCCC(=O)NS(=O)(=O)CC1CC1,-10.36
CCS(=O)(=O)c1ccc2oc([C@H]3CCN(CC4CCCCC4)C3)nc2c1,8.641
COCCN(C)C[C@@H]1CN(c2cc(C)nc3ccccc23)C[C@@H]1CO,14.72
COc1ccc(CN(Cc2cn(C)nc2C)CC2CCCO2)c(OC)c1 (stereo unspecified),-0.09196
CNC(=O)[C@H]1C[C@@H]2CN(c3cc(OC)ncn3)C[C@@H]2N1C(C)C,7.722
CCc1n[nH]c(C2CN(C(=O)c3nc(C)ncc3Cl)CCO2)n1 (stereo unspecified),-27.4
Cc1cc(C)c(CNC(=O)NCc2ccncc2)c(=O)[nH]1,-1.75
NC(=O)CN1CC[C@@]2(O)CCCC[C@H]2[C@@H]1c1ccc2c(c1)OCO2,-2.28
CCn1cnnc1CNC(=O)N(C)C(C)c1cccs1 (stereo unspecified),-7.517
O=C(CCN1CCc2ccccc21)N1C[C@@H](O)[C@H](N2CCCC2)C1,7.988
Cc1c[nH]c(C(=O)N2CCCC2c2ccc(C(=O)N3CCSCC3)s2)n1 (stereo unspecified),-10.14
Cc1cccc(N2CCN(C(=O)Nc3cnn(CC(N)=O)c3)CC2)c1,-7.674
O[C@@H]1CN(CC2=Cc3cc(Cl)ccc3OC2)CC[C@H]1N1CCCCCC1,-21.32
CN1CCC(c2nc3ccc(-c4ccccc4)cn3n2)CC1,-1.185
Cc1ncc(CN2CCN(c3ccc4nncn4n3)C(C)C2)s1 (stereo unspecified),-3.356
Cc1ccc2nc(CN3CCC(O)(Cn4ccnc4)CC3)cc(O)c2c1,15.23
CCc1ncncc1C(=O)N1CCN(Cc2ccco2)CC1,-13.76
CC(C)c1noc(C(C)N2CCN(Cc3ccco3)CC2)n1 (stereo unspecified),-5.731
COc1ccc(CNC(=O)C2=NN(c3ccc(C)cc3)C(=O)CN2)cc1,-44.99
Cc1ccc(N2CCC3(CC2)CCN(C2CCOC2)CC3)nn1 (stereo unspecified),1.907
CN(C)CCOCc1nnc2n1CCN(Cc1cccs1)CC2,-21.86
CCc1cnc(CN(C(C)=O)C2CCN(CCc3cccs3)C2)o1 (stereo unspecified),-3.197
COCC1CN(CC2CC2)Cc2nn(C)cc21 (stereo unspecified),-14.33
CC(=O)c1c(F)cccc1NCC(O)C1CC1 (stereo unspecified),3.235
CCN(CCCNCc1c(C)nn(C)c1N(C)C)S(C)(=O)=O,-23.82
CC(=O)N1CCCC(c2ccc(CO)c(-c3c(C)noc3C)n2)C1 (stereo unspecified),-2.968
O=C(CNC(=O)N1CCc2c([nH]c3ccc(Cl)cc23)C1)NCCCO,6.1
Cc1cc(F)ccc1N1CCCC(NC2CCOCC2)C1=O (stereo unspecified),-3.648
Cc1nc(CC(=O)N2CCC(c3ccn4nccc4n3)CC2)cs1,0.07647

The first 6 entries again:

Compound,percent effect
Cc1noc(C(C)N2CCN(CCC(=O)N3CCOCC3)CC2)n1 (stereo unspecified),-2.099
CNC(=O)[C@@]12CCO[C@@H]1CCN(Cc1ccc3c(c1)OCO3)C2,10.58
Cc1cccc(C(C(=O)NCC2(O)CCCCC2)N(C)C)c1 (stereo unspecified),2.48
CN(C)c1ncccc1CNS(=O)(=O)c1ccccc1F,3.06
Cc1nnc(CN2CCC3(CCC(=O)N(C4CC4)C3)CC2)o1,-6.023
COc1ncccc1CNC(=O)c1cnccn1,-12.22

Source: ChEMBL document CHEMBL3988442, “University of Dundee, Small-Polar-MMV Screening Library” (2021).